According to the supplement of paper PMC10849652:
The list shows a part of the results.

Sequences of proteins named here, by UniProt entry; tags and fusion partners are left off. A change or cut given only in a name is not applied to a line headed by its entry.
UniProt P24385, whole entry, looked up: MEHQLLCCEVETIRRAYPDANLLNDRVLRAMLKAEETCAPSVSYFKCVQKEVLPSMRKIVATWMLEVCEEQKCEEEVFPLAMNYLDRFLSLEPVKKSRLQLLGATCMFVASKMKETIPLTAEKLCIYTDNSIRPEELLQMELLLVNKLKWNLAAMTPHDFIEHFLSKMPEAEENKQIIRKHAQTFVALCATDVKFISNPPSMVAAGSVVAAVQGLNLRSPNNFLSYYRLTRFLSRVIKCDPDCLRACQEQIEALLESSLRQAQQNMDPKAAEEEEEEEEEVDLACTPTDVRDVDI
UniProt O60583: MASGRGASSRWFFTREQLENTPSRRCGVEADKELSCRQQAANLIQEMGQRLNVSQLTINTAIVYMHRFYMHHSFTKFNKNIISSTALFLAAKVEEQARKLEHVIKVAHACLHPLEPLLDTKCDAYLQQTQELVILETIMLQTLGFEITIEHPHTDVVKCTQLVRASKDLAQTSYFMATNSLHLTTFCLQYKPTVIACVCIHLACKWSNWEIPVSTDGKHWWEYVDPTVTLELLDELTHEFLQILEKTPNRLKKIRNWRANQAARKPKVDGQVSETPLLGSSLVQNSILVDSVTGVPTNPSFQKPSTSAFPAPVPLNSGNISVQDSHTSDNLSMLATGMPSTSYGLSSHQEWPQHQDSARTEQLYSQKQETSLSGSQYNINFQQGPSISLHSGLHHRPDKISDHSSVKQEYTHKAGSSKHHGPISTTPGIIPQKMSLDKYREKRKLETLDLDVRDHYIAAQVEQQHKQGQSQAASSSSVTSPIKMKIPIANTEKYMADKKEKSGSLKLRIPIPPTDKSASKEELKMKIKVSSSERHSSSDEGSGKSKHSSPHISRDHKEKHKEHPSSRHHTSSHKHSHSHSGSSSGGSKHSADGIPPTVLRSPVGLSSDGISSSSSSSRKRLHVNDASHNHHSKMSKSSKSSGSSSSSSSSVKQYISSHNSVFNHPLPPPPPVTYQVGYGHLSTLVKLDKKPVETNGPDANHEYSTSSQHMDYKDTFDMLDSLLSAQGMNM
UniProt P30307: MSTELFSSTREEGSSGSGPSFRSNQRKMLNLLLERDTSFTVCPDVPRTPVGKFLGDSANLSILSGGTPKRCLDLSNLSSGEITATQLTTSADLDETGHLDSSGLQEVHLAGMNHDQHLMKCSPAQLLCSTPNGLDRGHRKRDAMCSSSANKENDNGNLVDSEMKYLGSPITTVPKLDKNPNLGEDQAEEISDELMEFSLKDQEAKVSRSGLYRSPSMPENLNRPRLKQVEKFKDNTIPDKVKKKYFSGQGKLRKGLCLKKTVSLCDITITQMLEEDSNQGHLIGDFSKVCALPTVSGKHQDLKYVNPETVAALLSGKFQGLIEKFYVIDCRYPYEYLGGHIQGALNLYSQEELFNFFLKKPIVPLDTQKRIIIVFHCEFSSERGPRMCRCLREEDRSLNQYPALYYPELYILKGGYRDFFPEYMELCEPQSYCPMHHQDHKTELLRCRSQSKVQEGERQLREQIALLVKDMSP
UniProt P21926: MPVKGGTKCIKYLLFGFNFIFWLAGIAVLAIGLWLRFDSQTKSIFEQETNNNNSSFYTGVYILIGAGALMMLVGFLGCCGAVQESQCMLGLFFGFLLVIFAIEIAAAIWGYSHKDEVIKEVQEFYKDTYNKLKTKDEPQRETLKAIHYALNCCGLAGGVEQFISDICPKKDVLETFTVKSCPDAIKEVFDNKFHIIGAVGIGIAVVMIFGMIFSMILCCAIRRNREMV
UniProt P20138, whole entry, looked up: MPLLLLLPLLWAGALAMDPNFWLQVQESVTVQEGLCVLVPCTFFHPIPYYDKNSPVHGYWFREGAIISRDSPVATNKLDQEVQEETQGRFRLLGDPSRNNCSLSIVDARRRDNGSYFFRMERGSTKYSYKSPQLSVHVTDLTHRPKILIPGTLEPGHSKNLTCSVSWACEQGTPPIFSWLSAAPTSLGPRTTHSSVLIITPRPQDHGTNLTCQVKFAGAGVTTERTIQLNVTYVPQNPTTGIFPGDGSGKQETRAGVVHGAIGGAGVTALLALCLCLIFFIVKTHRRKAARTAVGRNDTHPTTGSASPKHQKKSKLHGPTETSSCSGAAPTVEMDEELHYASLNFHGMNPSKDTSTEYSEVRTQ
UniProt Q2TAC2: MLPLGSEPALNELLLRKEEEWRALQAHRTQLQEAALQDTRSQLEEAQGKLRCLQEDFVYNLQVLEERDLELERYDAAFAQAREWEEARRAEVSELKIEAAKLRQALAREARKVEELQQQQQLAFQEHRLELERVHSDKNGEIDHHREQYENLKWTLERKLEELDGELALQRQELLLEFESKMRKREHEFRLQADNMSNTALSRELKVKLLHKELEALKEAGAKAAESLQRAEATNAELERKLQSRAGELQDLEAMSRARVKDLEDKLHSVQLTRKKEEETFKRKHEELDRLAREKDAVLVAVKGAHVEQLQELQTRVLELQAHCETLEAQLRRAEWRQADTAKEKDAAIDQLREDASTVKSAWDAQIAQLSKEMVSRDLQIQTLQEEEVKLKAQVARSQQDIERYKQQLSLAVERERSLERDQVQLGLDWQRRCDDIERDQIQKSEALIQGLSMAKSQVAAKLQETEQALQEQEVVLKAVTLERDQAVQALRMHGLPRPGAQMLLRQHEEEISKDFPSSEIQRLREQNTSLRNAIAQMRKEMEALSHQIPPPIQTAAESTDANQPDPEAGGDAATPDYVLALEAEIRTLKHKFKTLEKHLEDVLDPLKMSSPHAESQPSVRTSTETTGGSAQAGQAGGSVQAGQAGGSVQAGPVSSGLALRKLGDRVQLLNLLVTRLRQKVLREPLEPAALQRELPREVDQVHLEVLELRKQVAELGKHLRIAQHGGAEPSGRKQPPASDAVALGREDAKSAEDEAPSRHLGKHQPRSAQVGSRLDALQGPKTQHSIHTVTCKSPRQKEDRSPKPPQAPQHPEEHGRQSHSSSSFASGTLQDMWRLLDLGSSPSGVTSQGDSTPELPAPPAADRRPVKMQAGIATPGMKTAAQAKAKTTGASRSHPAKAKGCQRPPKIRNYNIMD
UniProt Q9UIB8: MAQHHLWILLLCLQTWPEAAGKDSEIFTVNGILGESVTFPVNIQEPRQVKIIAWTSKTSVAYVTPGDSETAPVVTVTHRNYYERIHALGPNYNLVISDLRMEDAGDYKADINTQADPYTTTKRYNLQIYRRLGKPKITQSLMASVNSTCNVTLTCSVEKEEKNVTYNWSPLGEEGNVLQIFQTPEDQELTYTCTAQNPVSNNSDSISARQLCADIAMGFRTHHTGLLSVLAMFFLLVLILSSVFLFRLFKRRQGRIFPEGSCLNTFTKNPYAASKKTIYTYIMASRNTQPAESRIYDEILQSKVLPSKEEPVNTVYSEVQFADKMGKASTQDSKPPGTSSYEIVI
UniProt P30304: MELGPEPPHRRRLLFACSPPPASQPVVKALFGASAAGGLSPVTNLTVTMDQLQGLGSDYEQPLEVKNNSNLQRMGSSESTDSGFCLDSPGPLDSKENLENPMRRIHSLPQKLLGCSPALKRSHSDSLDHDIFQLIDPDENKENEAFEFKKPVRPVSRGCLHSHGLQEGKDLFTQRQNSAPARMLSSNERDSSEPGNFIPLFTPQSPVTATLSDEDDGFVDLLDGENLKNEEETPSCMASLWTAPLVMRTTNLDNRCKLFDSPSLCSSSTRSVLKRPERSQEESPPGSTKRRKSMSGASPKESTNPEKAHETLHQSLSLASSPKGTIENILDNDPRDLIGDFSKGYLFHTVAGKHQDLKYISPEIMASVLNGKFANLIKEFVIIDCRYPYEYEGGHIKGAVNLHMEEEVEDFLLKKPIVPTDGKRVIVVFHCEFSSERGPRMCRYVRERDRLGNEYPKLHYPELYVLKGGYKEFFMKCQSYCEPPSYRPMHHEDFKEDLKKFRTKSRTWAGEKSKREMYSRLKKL
UniProt P15529: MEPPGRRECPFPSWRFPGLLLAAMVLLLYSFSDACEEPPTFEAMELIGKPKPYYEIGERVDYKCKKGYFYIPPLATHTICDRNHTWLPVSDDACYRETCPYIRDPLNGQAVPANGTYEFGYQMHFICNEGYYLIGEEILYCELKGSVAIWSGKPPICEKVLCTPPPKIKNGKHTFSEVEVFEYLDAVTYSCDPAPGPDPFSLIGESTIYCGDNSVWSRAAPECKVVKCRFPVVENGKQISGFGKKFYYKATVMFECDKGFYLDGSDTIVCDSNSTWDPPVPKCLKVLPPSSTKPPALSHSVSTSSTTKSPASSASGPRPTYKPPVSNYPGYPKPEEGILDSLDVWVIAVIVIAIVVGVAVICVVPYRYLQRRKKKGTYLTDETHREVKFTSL
UniProt Q6YHK3: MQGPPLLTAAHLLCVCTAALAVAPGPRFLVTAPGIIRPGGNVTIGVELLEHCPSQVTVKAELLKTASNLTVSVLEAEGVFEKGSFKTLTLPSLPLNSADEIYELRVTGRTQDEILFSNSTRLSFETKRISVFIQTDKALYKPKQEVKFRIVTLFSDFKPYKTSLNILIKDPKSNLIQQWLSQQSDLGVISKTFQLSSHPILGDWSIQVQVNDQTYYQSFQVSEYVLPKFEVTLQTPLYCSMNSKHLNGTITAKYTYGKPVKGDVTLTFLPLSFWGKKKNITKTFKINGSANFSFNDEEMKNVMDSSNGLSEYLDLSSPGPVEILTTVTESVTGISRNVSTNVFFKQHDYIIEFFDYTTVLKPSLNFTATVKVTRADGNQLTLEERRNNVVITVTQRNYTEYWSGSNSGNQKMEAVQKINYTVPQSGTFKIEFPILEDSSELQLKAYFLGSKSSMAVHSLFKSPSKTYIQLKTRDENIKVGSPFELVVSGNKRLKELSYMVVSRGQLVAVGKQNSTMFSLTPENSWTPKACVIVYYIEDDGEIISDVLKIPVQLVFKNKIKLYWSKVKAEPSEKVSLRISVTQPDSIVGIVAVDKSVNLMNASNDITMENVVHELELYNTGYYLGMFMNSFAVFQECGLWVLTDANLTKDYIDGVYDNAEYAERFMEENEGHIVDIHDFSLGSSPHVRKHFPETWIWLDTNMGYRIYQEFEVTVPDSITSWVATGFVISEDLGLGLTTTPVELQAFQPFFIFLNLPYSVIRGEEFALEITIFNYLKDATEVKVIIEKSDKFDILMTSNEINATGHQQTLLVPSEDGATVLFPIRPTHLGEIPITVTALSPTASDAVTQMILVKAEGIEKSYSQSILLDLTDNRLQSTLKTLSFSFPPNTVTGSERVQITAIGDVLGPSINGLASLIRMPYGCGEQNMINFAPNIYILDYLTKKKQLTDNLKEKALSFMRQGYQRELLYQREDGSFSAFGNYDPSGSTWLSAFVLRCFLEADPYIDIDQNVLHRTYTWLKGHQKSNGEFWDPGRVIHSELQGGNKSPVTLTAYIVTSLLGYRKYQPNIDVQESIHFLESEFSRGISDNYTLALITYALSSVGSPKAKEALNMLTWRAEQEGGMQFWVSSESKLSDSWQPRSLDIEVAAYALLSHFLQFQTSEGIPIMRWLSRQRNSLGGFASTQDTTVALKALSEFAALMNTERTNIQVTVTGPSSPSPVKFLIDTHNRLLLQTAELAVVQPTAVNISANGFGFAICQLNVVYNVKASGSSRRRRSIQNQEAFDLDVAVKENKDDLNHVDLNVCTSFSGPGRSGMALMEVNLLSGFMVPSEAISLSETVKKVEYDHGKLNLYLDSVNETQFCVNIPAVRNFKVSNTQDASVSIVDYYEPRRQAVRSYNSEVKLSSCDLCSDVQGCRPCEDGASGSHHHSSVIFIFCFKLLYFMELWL
UniProt Q75N03: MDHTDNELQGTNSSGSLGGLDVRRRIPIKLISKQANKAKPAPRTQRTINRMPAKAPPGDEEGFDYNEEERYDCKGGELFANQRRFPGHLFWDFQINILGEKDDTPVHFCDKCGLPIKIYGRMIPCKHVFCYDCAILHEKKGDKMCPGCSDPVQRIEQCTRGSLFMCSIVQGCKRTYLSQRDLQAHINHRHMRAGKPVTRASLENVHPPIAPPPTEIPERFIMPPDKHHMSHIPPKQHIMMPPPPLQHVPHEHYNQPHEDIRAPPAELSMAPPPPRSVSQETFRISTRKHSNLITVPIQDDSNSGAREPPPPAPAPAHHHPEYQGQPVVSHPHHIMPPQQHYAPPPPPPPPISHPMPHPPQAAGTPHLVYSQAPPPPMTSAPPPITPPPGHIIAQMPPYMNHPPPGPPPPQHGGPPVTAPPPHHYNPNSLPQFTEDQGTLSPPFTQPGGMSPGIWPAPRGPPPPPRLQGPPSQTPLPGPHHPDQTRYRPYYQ
UniProt P30279, whole entry, looked up: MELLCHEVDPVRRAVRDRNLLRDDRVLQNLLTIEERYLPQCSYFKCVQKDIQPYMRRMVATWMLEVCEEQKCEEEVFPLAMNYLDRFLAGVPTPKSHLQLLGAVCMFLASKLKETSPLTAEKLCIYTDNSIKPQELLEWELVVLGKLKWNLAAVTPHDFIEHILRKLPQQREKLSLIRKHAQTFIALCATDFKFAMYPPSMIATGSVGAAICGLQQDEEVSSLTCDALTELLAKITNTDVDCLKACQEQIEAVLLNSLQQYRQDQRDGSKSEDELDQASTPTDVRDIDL

Assays:
Assay in all cases: log2 fold change, soluble protein after heating vs DMSO (PISA); higher = thermal stabilisation; K562 cells, 10 uM, 30 min; active = over 0.2 and 3.5 SD of the protein, either way, in both replicates (recomputed)
[1] = compound: Cn1cc(-c2ccc3nnc(C(F)(F)c4ccc5ncccc5c4)n3n2)cn1
Procedure, shortened: (§1)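 Thermal stability values are relative to control samples and come from duplicates. They are expressed as log2 fold changes. For measurement, K562 cells (2×10^6 cells/mL) received 10 μM compound for 30 min, and aliquots were heated for 3 min over 48°C-58°C, pooled, and extracted at 4°C in PBS with 0.5% NP-40. Soluble protein, the supernatant after 21,000xg for 90 min, was quantified by TMTpro 16plex LC-MS/MS with equalised channel sums.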

[2] = compound: NC(=O)Nc1cc(-c2cccc(F)c2)sc1C(=O)N[C@H]1CCCNC1
Procedure, shortened: as §1

[3] = compound: Nc1ccccc1NC(=O)c1ccc(CNC(=O)OCc2cccnc2)cc1 [entinostat]
Procedure, shortened: as §1

[4] = compound: Cc1cccc(CC(=O)N2CCc3c2ccc(-c2cn(C)c4ncnc(N)c24)c3F)n1
Procedure, shortened: as §1

[5] = compound: Cc1cn(-c2cc(NC(=O)c3ccc(C)c(Nc4nccc(-c5cccnc5)n4)c3)cc(C(F)(F)F)c2)cn1 [nilotinib]
Procedure, shortened: as §1

[6] = compound: Cc1nc(Nc2n[nH]c3c2CN(C(=O)N[C@H](CN(C)C)c2ccccc2)C3(C)C)c2sccc2n1
Procedure, shortened: as §1

[7] = compound: Cc1nc(Nc2ncc(C(=O)Nc3c(C)cccc3Cl)s2)cc(N2CCN(CCO)CC2)n1 [dasatinib]
Procedure, shortened: as §1

[8] = compound: Cc1ncc(-c2ccnc(Nc3ccc(S(C)(=O)=O)cc3)n2)n1C(C)C
Procedure, shortened: as §1

[9] = compound: Cn1cncc1[C@@](N)(c1ccc(Cl)cc1)c1ccc2c(c1)c(-c1cccc(Cl)c1)cc(=O)n2C [tipifarnib]
Procedure, shortened: as §1

[10] = compound: FC(F)(F)c1ccc(/C=C/c2nc(COc3ccc(CCCCn4ccnn4)cc3)co2)cc1 [mubritinib]
Procedure, shortened: as §1

[11] = compound: NC(=O)c1cnc(N[C@@H]2CCCC[C@@H]2N)nc1Nc1cccc(-n2nccn2)c1
Procedure, shortened: as §1

[12] = compound: NC1(c2ccc(-c3nc4ccn5c(=O)[nH]nc5c4cc3-c3ccccc3)cc2)CCC1
Procedure, shortened: as §1

[13] = compound: O=C(CCCCCCC(=O)Nc1ccccc1)NO [vorinostat]
Procedure, shortened: as §1

[14] = compound: O=C(CCCCCCNC(=O)c1cnc(N(c2ccccc2)c2ccccc2Cl)nc1)NO [citarinostat]
Procedure, shortened: as §1

[15] = compound: O=C(O)c1ccc2c(c1)nc(Nc1cccc(Cl)c1)c1ccncc12 [silmitasertib]
Procedure, shortened: as §1

[16] = compound: O=C1NC(=O)C(c2cnc3ccccn23)=C1c1cn2c3c(cc(F)cc13)CN(C(=O)N1CCCCC1)CC2
Procedure, shortened: as §1

[17] = compound: c1cc(OCCN2CCCCC2)cc(-c2n[nH]c3ccc(-c4nnc[nH]4)cc23)c1
Procedure, shortened: as §1

[18] = compound: Cn1cc(-c2ccc3c(c2)CCN3C(=O)Cc2cccc(C(F)(F)F)c2)c2c(N)ncnc21
Procedure, shortened: as §1

[19] = compound: NCC(=O)Nc1ccc(-n2nc(C(F)(F)F)cc2-c2ccc3c(ccc4ccccc43)c2)cc1
Procedure, shortened: as §1

[20] = compound: Cc1ccc(NC(=O)c2ccc(CN3CC[C@H](N(C)C)C3)c(C(F)(F)F)c2)cc1Nc1nccc(-c2cncnc2)n1 [bafetinib]
Procedure, shortened: as §1

Measured: log2 fold change

CCND1 (UniProt P24385)
inactive: [1] -0.114 | [2] -0.001 | [3] -0.003

CCNT2 (UniProt O60583)
inactive: [4] -0.117 | [5] 0.105 | [6] -0.161 | [7] -0.02 | [8] -0.462 | [1] -0.219 | [9] 0.08 | [10] -0.209 | [2] -0.045 | [11] 0.042 | [12] 0.054 | [3] 0.076 | [13] 0.223 | [14] 0.06 | [15] -0.06 | [16] -0.032 | [17] -0.089

CASP9 (UniProt P55211)
inactive: [4] 0.037 | [5] -0.013 | [6] -0.136 | [7] -0.075 | [8] 0 | [18] -0.276 | [1] -0.004 | [9] 0.003 | [2] 0.059 | [11] -0.234 | [19] -0.111 | [3] -0.098 | [13] 0.045 | [14] 0.05 | [16] -0.057 | [17] 0.054

CDC25C (UniProt P30307)
inactive: [5] -0.1 | [6] 0.068 | [7] 0.024 | [8] -0.035 | [18] -0.14 | [10] 0.042 | [11] -0.048 | [12] -0.061 | [15] -0.264 | [16] 0.507

CAV1 (UniProt F8WDM7)
inactive: [18] -0.041

CD9 (UniProt P21926)
inactive: [4] 0.471 | [7] -0.173 | [18] 0.051 | [2] 0.581 | [11] 0.16 | [3] 0.217 | [13] 0.039 | [16] 0.076

CD33 (UniProt P20138)
inactive: [4] -0.033 | [7] 0.066 | [1] -0.252 | [9] 0.065 | [2] 0.073 | [19] 0.094 | [3] 0.004 | [13] 0.035 | [14] -0.037 | [16] 0.03 | [17] 0.076

CCDC57 (UniProt Q2TAC2)
inactive: [20] -0.025 | [5] -0.044 | [6] -0.023 | [8] -0.021 | [18] 0.068 | [1] -0.021 | [9] -0.023 | [10] 0.031 | [2] -0.025 | [12] -0.014 | [19] -0.04 | [3] -0.031 | [14] 0.008 | [15] -0.038 | [16] -0.002 | [17] -0.11

CCT6B isoform 3 (UniProt Q92526)
inactive: [7] -0.007 | [18] 0.117 | [9] -0.014 | [2] -0.1 | [11] -0.169 | [19] 0.014 | [3] -0.025

CASK (UniProt O14936)
inactive: [7] 0.096 | [11] 0.026

CBX8 (UniProt Q9HC52)
inactive: [7] -0.198 | [18] 0.087 | [1] -0.003 | [14] -0.445 | [17] -0.321

CD84 (UniProt Q9UIB8)
inactive: [7] 0.169 | [18] -0.117 | [2] -0.182 | [11] -0.036 | [3] 0.234 | [16] 0.084

CDC25A (UniProt P30304)
inactive: [20] -0.072 | [5] 0.005 | [6] -0.016 | [8] -0.053 | [10] 0.044 | [2] 0.006 | [12] -0.097 | [3] -0.03 | [14] -0.005 | [15] -0.007 | [16] -0.079 | [17] -0.003

CCDC187, A0A1W2PQX5
inactive: [4] -0.106 | [5] 0.318 | [6] 0.027 | [8] 0.104 | [1] -0.056 | [11] -0.147 | [13] -0.042 | [16] -0.048

CD37 (UniProt P11049)
inactive: [4] -0.07 | [5] -0.248 | [6] 0.146 | [7] -0.012 | [8] 0.103 | [9] 0.056 | [11] 0.065 | [19] -0.117 | [13] -0.021

CCDC102A (UniProt Q96A19)
inactive: [4] -0.309 | [18] 0.006 | [9] 0.026 | [11] -0.018 | [19] 0.153 | [13] -0.137 | [14] -0.137 | [16] -0.023 | [17] -0.084

CD46 (UniProt P15529)
inactive: [20] -0.002 | [7] 0.119 | [2] 0.122 | [19] -0.105 | [3] -0.072

Six neighbouring records from above:
CCND1 (UniProt P24385)
inactive: [1] -0.114 | [2] -0.001 | [3] -0.003

CCNT2 (UniProt O60583)
inactive: [4] -0.117 | [5] 0.105 | [6] -0.161 | [7] -0.02 | [8] -0.462 | [1] -0.219 | [9] 0.08 | [10] -0.209 | [2] -0.045 | [11] 0.042 | [12] 0.054 | [3] 0.076 | [13] 0.223 | [14] 0.06 | [15] -0.06 | [16] -0.032 | [17] -0.089

CASP9 (UniProt P55211)
inactive: [4] 0.037 | [5] -0.013 | [6] -0.136 | [7] -0.075 | [8] 0 | [18] -0.276 | [1] -0.004 | [9] 0.003 | [2] 0.059 | [11] -0.234 | [19] -0.111 | [3] -0.098 | [13] 0.045 | [14] 0.05 | [16] -0.057 | [17] 0.054

CDC25C (UniProt P30307)
inactive: [5] -0.1 | [6] 0.068 | [7] 0.024 | [8] -0.035 | [18] -0.14 | [10] 0.042 | [11] -0.048 | [12] -0.061 | [15] -0.264 | [16] 0.507

CAV1 (UniProt F8WDM7)
inactive: [18] -0.041

CD9 (UniProt P21926)
inactive: [4] 0.471 | [7] -0.173 | [18] 0.051 | [2] 0.581 | [11] 0.16 | [3] 0.217 | [13] 0.039 | [16] 0.076

Remaining list, next part.

CD109 (UniProt Q6YHK3)
inactive: [4] -0.047 | [7] 0 | [19] -0.267 | [13] 0.09

CDC37 (UniProt K7EKQ2)
inactive: [20] -0.385 | [2] 0.435 | [3] 0.25 | [14] 0.111 | [16] 0.288 | [17] 0.066

CBLL1 (UniProt Q75N03)
inactive: [5] 0.098 | [6] -0.243 | [7] 0.068 | [8] -0.081 | [18] -0.02 | [1] -0.053 | [9] 0.027 | [2] -0.07 | [11] 0.054 | [19] -0.207 | [3] 0.057 | [14] 0.031 | [17] -0.086

CCND2 (UniProt P30279)
inactive: [18] 0.103

CCNL2 (UniProt Q96S94)
inactive: [5] 0 | [6] 0.002 | [8] -0.562 | [2] -0.148 | [3] 0.189 | [16] -0.125

CCNE2 (UniProt O96020)
inactive: [7] -0.096
